# The supplement of paper PMC8728848
# The other results are listed elsewhere or left out.
# Assays:
# Test in all cases: glycan array binding signal (z-score within array); higher = stronger binding
# Conditions in all cases: glycan notation: IUPAC condensed, linker removed
# [1] = target: Neu5Ac(a2-6)Gal(b1-4)GlcNAc(b1-3)[Neu5Ac(a2-6)Gal(b1-4)GlcNAc(b1-6)]GalNAc
# Procedure, shortened: (§1)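 Glycan array data were curated from 3228 arrays in the Consortium for Functional Glycomics database and kept only where the protein sequence was available. Glycan names were converted to IUPAC-condensed notation, and columns mapping to the same glycan were averaged. The binding signal is a within-array Z-score, averaged across arrays of the same protein sequence at different concentrations or buffers and across linkers. Negative Z-scores can be read as non-binding.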
# [2] = target: Neu5Ac(a2-6)Gal(b1-4)GlcNAc(b1-6)GalNAc
# Procedure, shortened: as §1
# [3] = target: Neu5Ac(a2-6)Gal(b1-4)GlcNAc(b1-6)[Gal(b1-3)GlcNAc(b1-3)]Gal(b1-4)Glc
# Procedure, shortened: as §1
# [4] = target: Neu5Ac(a2-6)Gal(b1-4)GlcNAc(b1-6)[Gal(b1-3)]GalNAc
# Procedure, shortened: as §1
# [5] = target: Neu5Ac(a2-6)Gal(b1-4)GlcNAc6S
# Procedure, shortened: as §1
# [6] = target: Neu5Ac(a2-6)GalNAc
# Procedure, shortened: as §1
# [7] = target: Neu5Ac(a2-6)GalNAc(b1-4)GlcNAc
# Procedure, shortened: as §1
# [8] = target: Neu5Ac(a2-6)GalNAc(b1-4)GlcNAc6S
# Procedure, shortened: as §1
# [9] = target: Neu5Ac(a2-6)GlcNAc(b1-4)GlcNAc
# Procedure, shortened: as §1
# [10] = target: Neu5Ac(a2-6)GlcNAc(b1-4)GlcNAc(b1-4)GlcNAc
# Procedure, shortened: as §1
# [11] = target: Neu5Ac(a2-8)Neu5Ac
# Procedure, shortened: as §1
# [12] = target: Neu5Ac(a2-8)Neu5Ac(a2-3)Gal(b1-3)GalNAc(b1-4)[Neu5Ac(a2-3)]Gal(b1-4)Glc
# Procedure, shortened: as §1
# [13] = target: Neu5Ac(a2-8)Neu5Ac(a2-3)Gal(b1-3)GalNAc(b1-4)[Neu5Ac(a2-8)Neu5Ac(a2-3)]Gal(b1-4)Glc
# Procedure, shortened: as §1
# [14] = target: Neu5Ac(a2-8)Neu5Ac(a2-3)Gal(b1-4)Glc
# Procedure, shortened: as §1
# [15] = target: Neu5Ac(a2-8)Neu5Ac(a2-3)Gal(b1-4)GlcNAc
# Procedure, shortened: as §1
# [16] = target: Neu5Ac(a2-8)Neu5Ac(a2-3)[Gal(b1-3)GalNAc(b1-4)]Gal(b1-4)Glc
# Procedure, shortened: as §1
# [17] = target: Neu5Ac(a2-8)Neu5Ac(a2-3)[GalNAc(b1-4)]Gal(b1-4)Glc
# Procedure, shortened: as §1
# [18] = target: Neu5Ac(a2-8)Neu5Ac(a2-8)Neu5Ac
# Procedure, shortened: as §1
# [19] = target: Neu5Ac(a2-8)Neu5Ac(a2-8)Neu5Ac(a2-3)Gal(b1-4)Glc
# Procedure, shortened: as §1
# [20] = target: Neu5Ac(a2-8)Neu5Ac(a2-8)Neu5Ac(a2-3)[Gal(b1-3)GalNAc(b1-4)]Gal(b1-4)Glc
# Procedure, shortened: as §1
# [21] = target: Neu5Ac(a2-8)Neu5Ac(a2-8)Neu5Ac(a2-3)[GalNAc(b1-4)]Gal(b1-4)Glc
# Procedure, shortened: as §1
# [22] = target: Neu5Ac(a2-8)Neu5Ac(a2-8)Neu5Ac(a2-8)Neu5Ac(a2-3)[GalNAc(b1-4)]Gal(b1-4)Glc
# Procedure, shortened: as §1
# [23] = target: Neu5Ac(a2-8)Neu5Gc(a2-3)Gal(b1-4)GlcNAc
# Procedure, shortened: as §1
# [24] = target: Neu5Ac(b2-6)Gal(b1-4)GlcNAc
# Procedure, shortened: as §1
# [25] = target: Neu5Ac(b2-6)GalNAc
# Procedure, shortened: as §1
# [26] = target: Neu5Ac9Ac(a2-3)Gal(b1-3)GlcNAc
# Procedure, shortened: as §1
# [27] = target: Neu5Ac9Ac(a2-3)Gal(b1-4)GlcNAc
# Procedure, shortened: as §1
# [28] = target: Neu5Ac9Ac(a2-6)Gal(b1-4)GlcNAc
# Procedure, shortened: as §1
# [29] = target: Neu5Gc(a2-3)Gal(b1-3)GlcNAc
# Procedure, shortened: as §1
# [30] = target: Neu5Gc(a2-3)Gal(b1-3)[Fuc(a1-4)]GlcNAc
# Procedure, shortened: as §1
# [31] = target: Neu5Gc(a2-3)Gal(b1-4)Glc
# Procedure, shortened: as §1
# [32] = target: Neu5Gc(a2-3)Gal(b1-4)GlcNAc
# Procedure, shortened: as §1
# [33] = target: Neu5Gc(a2-3)Gal(b1-4)GlcNAc(b1-3)Gal(b1-4)GlcNAc(b1-2)Man(a1-3)[Neu5Gc(a2-3)Gal(b1-4)GlcNAc(b1-3)Gal(b1-4)GlcNAc(b1-2)Man(a1-6)]Man(b1-4)GlcNAc(b1-4)GlcNAc
# Procedure, shortened: as §1
# [34] = target: Neu5Gc(a2-3)Gal(b1-4)[Fuc(a1-3)]GlcNAc
# Procedure, shortened: as §1
# [35] = target: Neu5Gc(a2-6)Gal(b1-4)GlcNAc
# Procedure, shortened: as §1
# [36] = target: Neu5Gc(a2-6)GalNAc
# Procedure, shortened: as §1
# [37] = target: Neu5Gc(a2-8)Neu5Ac(a2-3)Gal(b1-4)GlcNAc
# Procedure, shortened: as §1
# [38] = target: Neu5Gc(a2-8)Neu5Gc(a2-3)Gal(b1-4)GlcNAc
# Procedure, shortened: as §1
binder,measurement,setting,value
"AT1G77380(17) (Arabidopsis thaliana), Q39134 (protein) MVQNHQTVLAVDMPQTGGSKYLDDDGKNKRTGSVWTASAHIITAVIGSGVLSLAWATAQLGWLAGPVVMLLFSAVTYFTSSLLAACYRSGDPISGKRNYTYMDAVRSNLGGVKVTLCGIVQYLNIFGVAIGYTIASAISMMAIKRSNCFHKSGGKDPCHMNSNPYMIAFGLVQILFSQIPDFDQLWWLSILAAVMSFTYSSAGLALGIAQVVVNGKVKGSLTGISIGAVTETQKIWRTFQALGDIAFAYSYSIILIEIQDTVKSPPSEEKTMKKATLVSVSVTTMFYMLCGCMGYAAFGDLSPGNLLTGFGFYNPYWLLDIANAAIVIHLIGAYQVYCQPLFAFIEKQASIQFPDSEFIAKDIKIPIPGFKPLRLNVFRLIWRTVFVIITTVISMLLPFFNDVVGLLGALGFWPLTVYFPVEMYIAQKKIPRWSTRWVCLQVFSLGCLVVSIAAAAGSIAGVLLDLKSYKPFRSEY",glycan array binding signal (z-score),[1],-0.945
same,glycan array binding signal (z-score),[2],-0.726
same,glycan array binding signal (z-score),[3],0.023
same,glycan array binding signal (z-score),[4],-0.819
same,glycan array binding signal (z-score),[5],-0.74
same,glycan array binding signal (z-score),[6],-0.601
same,glycan array binding signal (z-score),[7],-0.653
same,glycan array binding signal (z-score),[8],-0.655
same,glycan array binding signal (z-score),[9],-0.508
same,glycan array binding signal (z-score),[10],0.349
same,glycan array binding signal (z-score),[11],-0.347
same,glycan array binding signal (z-score),[12],-0.71
same,glycan array binding signal (z-score),[13],-0.862
same,glycan array binding signal (z-score),[14],-0.804
same,glycan array binding signal (z-score),[15],-0.719
same,glycan array binding signal (z-score),[16],-0.73
same,glycan array binding signal (z-score),[17],-0.843
same,glycan array binding signal (z-score),[18],-0.687
same,glycan array binding signal (z-score),[19],0.184
same,glycan array binding signal (z-score),[20],-0.674
same,glycan array binding signal (z-score),[21],-0.19
same,glycan array binding signal (z-score),[22],-0.092
same,glycan array binding signal (z-score),[23],-0.298
same,glycan array binding signal (z-score),[24],-0.53
same,glycan array binding signal (z-score),[25],-0.776
same,glycan array binding signal (z-score),[26],0.167
same,glycan array binding signal (z-score),[27],1.61
same,glycan array binding signal (z-score),[28],-0.7
same,glycan array binding signal (z-score),[29],2.48
same,glycan array binding signal (z-score),[30],0.666
same,glycan array binding signal (z-score),[31],0.075
same,glycan array binding signal (z-score),[32],0.211
same,glycan array binding signal (z-score),[33],-0.74
same,glycan array binding signal (z-score),[34],-0.363
same,glycan array binding signal (z-score),[35],0.455
same,glycan array binding signal (z-score),[36],1.18
same,glycan array binding signal (z-score),[37],-0.678
same,glycan array binding signal (z-score),[38],-0.839

# Some of the entries above, reformatted.
binder | measurement | setting | value
AT1G77380(17) (Arabidopsis thaliana), Q39134 (protein) MVQNHQTVLAVDMPQTGGSKYLDDDGKNKRTGSVWTASAHIITAVIGSGVLSLAWATAQLGWLAGPVVMLLFSAVTYFTSSLLAACYRSGDPISGKRNYTYMDAVRSNLGGVKVTLCGIVQYLNIFGVAIGYTIASAISMMAIKRSNCFHKSGGKDPCHMNSNPYMIAFGLVQILFSQIPDFDQLWWLSILAAVMSFTYSSAGLALGIAQVVVNGKVKGSLTGISIGAVTETQKIWRTFQALGDIAFAYSYSIILIEIQDTVKSPPSEEKTMKKATLVSVSVTTMFYMLCGCMGYAAFGDLSPGNLLTGFGFYNPYWLLDIANAAIVIHLIGAYQVYCQPLFAFIEKQASIQFPDSEFIAKDIKIPIPGFKPLRLNVFRLIWRTVFVIITTVISMLLPFFNDVVGLLGALGFWPLTVYFPVEMYIAQKKIPRWSTRWVCLQVFSLGCLVVSIAAAAGSIAGVLLDLKSYKPFRSEY | glycan array binding signal (z-score) | [5] | -0.74
same | glycan array binding signal (z-score) | [6] | -0.601
